Results reported in PMC12155415.
Results are given in words; binding and its absence hold for the method and conditions named. For some assays here: Binding seen in cells or lysates may run through a third protein. Some entries that bind do so weakly or less than the wild type.

Sequences of proteins named here, by UniProt entry; tags and fusion partners are left off.
UniProt Q92598: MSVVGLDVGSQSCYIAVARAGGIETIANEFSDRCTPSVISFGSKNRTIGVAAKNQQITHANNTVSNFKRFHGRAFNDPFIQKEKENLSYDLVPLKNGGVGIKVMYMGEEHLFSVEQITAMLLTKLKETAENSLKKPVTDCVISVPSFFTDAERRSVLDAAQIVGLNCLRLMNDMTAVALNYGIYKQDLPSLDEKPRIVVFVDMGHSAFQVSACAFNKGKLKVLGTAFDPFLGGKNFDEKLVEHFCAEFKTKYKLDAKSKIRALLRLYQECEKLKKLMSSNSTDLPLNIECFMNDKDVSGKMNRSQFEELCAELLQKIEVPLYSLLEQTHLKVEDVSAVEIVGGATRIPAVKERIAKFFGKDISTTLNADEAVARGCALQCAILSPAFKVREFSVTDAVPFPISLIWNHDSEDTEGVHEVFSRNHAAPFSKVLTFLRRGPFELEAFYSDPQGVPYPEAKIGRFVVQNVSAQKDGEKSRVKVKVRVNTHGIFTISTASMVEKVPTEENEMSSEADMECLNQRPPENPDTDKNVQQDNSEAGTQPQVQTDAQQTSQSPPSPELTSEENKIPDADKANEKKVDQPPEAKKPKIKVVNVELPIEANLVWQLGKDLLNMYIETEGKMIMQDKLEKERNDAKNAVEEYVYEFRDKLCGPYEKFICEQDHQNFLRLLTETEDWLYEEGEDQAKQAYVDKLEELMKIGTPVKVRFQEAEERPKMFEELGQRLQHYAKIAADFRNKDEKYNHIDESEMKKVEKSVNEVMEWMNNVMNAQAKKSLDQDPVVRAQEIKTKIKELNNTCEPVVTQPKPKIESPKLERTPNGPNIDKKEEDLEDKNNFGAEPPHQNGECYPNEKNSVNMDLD
UniProt Q8TAQ2: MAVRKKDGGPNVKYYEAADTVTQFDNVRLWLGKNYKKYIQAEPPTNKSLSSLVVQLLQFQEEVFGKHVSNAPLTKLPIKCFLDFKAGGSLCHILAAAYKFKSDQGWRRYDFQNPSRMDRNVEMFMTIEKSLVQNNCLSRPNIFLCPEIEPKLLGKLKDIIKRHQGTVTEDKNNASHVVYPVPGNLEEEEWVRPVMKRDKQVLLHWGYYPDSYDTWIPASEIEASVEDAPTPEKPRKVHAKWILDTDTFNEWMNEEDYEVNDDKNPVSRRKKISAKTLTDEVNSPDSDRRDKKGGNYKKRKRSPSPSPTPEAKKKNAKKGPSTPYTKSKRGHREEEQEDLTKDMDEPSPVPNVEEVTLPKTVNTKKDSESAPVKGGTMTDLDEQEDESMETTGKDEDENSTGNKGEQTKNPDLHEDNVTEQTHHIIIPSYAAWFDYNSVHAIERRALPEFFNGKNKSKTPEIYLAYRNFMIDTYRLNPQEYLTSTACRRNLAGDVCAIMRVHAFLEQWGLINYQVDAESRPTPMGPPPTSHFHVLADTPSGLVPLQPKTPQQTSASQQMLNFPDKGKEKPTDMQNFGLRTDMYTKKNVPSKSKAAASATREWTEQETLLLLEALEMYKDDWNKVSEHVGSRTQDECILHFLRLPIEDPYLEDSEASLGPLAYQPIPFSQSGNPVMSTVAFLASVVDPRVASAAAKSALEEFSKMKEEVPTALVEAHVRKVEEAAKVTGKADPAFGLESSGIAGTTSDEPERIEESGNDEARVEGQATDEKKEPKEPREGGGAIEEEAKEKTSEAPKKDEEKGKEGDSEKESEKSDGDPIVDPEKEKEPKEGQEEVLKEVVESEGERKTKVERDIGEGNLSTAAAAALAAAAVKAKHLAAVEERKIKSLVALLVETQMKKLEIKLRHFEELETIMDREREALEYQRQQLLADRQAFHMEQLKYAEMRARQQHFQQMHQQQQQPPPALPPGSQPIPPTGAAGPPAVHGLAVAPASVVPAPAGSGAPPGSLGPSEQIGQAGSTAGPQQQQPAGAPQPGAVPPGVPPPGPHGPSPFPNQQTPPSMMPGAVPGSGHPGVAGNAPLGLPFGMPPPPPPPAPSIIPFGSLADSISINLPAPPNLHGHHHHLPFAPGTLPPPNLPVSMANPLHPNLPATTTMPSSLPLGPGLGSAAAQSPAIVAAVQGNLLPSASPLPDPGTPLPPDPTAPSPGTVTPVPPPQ
UniProt P51532: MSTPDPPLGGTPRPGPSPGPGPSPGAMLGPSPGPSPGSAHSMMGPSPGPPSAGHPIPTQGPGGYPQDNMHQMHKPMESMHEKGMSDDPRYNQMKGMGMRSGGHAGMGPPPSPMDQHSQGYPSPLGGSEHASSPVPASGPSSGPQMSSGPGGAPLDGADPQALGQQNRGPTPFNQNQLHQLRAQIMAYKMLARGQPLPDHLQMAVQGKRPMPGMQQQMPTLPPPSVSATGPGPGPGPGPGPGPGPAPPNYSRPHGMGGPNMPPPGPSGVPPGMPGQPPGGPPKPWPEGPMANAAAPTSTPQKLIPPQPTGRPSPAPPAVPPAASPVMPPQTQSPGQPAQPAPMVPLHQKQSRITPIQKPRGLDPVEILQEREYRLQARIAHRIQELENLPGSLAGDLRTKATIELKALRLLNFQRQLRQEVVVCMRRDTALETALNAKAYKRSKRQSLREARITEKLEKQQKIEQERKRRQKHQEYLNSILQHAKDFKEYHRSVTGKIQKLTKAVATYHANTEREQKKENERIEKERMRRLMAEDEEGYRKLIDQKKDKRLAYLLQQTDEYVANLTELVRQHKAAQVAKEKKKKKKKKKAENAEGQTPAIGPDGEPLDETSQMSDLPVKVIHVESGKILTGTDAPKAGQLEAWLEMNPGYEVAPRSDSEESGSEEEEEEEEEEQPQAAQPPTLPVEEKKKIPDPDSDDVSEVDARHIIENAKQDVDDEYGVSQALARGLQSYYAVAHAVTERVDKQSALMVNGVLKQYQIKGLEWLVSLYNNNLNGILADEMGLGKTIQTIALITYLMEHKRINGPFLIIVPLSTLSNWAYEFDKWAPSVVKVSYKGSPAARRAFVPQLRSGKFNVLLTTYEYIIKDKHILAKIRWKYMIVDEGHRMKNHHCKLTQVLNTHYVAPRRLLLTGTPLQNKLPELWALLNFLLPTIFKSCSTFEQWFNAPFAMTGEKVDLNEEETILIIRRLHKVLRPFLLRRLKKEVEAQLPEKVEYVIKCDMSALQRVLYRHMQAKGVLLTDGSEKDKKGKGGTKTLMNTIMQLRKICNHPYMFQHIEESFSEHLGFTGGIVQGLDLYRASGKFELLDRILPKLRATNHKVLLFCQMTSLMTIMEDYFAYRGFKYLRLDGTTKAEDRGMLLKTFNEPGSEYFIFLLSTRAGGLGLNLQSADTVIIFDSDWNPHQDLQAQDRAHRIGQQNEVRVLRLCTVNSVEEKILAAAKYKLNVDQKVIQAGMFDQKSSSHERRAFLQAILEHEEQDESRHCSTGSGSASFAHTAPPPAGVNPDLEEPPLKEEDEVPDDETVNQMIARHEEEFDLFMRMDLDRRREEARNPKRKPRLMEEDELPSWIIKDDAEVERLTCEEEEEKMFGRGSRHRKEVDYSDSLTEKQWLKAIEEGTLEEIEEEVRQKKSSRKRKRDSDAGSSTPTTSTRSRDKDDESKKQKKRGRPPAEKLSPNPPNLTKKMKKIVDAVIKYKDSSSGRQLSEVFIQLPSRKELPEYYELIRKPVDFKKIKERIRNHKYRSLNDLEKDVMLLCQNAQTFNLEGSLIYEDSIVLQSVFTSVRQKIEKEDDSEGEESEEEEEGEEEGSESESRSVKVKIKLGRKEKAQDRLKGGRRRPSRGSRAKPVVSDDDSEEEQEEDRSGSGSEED

Tests used:
HSP110-Flag = HSP110-Flag (UniProt Q92598); assay: co-IP; FLAG-tagged protein transiently expressed in HEK293 cells, lysate on anti-FLAG magnetic agarose beads, 2 h at 4 °C, Western blot
SMARCC2-Flag [1] = target: SMARCC2-Flag (UniProt Q8TAQ2); assay: pull-down; SMARCC2-Flag or SMARCA4-Flag from HEK 293T lysate immobilised on anti-FLAG magnetic beads, washed, then incubated with recombinant HSP110 for 2 h at 4 °C; Western blot; both purified
SMARCA4-Flag = SMARCA4-Flag (UniProt P51532); assay: as above
[2] = target: SMARCC2/BAF170 (endogenous, SW480 cells) (human (endogenous in SW480)) (UniProt Q8TAQ2); assay: proximity ligation; DuoLink PLA on fixed SW480 cells, untreated or treated with 50 µM oxaliplatin or 200 µM TMZ for 48 h, with scramble or HSP110 siRNA
SMARCC2-Flag [3] = target: SMARCC2-Flag (UniProt Q8TAQ2); assay: pull-down; SMARCC2-Flag from HEK 293T lysate immobilised on anti-FLAG magnetic beads, washed, then incubated with lysate of SW480 cells transfected with scramble, HSP110 or SMARCA4 siRNAs, 2 h at 4 °C; Western blot; only the target purified
SMARCC2-Flag [4] = target: SMARCC2-Flag (UniProt Q8TAQ2); assay: co-IP; FLAG-tagged protein transiently expressed in HEK293 cells, lysate on anti-FLAG magnetic agarose beads, 2 h at 4 °C, Western blot

Substance	binding [2]	binding (SMARCC2-Flag [3])	further results
SMARCC2 (endogenous, HEK293 cells) (from UniProt Q8TAQ2 1-1214)	–	–	binding (HSP110-Flag): binds
recombinant Human Hsp105/HSP110 protein (from UniProt Q92598 1-858)	–	–	binding (SMARCC2-Flag [1]): binds; binding (SMARCA4-Flag): no binding
SMARCA4/BRG1 (endogenous, SW480 cells) (from UniProt P51532 1-1647)	binds	binds	–
HSP110 (endogenous, SW480 cells) (from UniProt Q92598 1-858)	binds	binds	–
HSP110 (endogenous, HEK293 cells) (from UniProt Q92598 1-858)	–	–	binding (SMARCC2-Flag [4]): binds
